Consider one molecule from publication PMC9505565.

No constants are given. Whether binding was seen depends on the method and setting. In cells and extracts the contact can be indirect. Some results given as binding are weak or reduced against the parent protein; the word gives no strength.

In this test the target is T1, triggering receptor expressed on myeloid cells 2 (TREM2) (mouse (endogenous in mouse brain)) (UniProt Q99NH8).
T1 sequence: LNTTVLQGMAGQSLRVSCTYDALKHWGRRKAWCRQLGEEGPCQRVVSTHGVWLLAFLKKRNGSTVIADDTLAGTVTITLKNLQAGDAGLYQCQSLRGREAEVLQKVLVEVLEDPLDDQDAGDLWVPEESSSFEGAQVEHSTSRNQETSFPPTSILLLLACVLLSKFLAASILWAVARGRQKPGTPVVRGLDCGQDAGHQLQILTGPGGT
Kind of test: co-IP; brain tissue lysates (RIPA buffer) of WT, flox-Jak3 and IEC-Jak3-KO mice fed normal diet or high-fat diet; 1 ug IP antibody overnight at 4 C, Protein A Sepharose 1 h at 4 C, four washes, immunoblot; rabbit IgG and Jak3-KO brain as controls.

B1: Janus kinase-3 (Jak3) (enzyme, UniProt Q62137 1-1100)
chain: MAPPSEETPLIPQRSCSLSSSEAGALHVLLPPRGPGPPQRLSFSFGDYLAEDLCVRAAKACGILPVYHSLFALATEDFSCWFPPSHIFCIEDVDTQVLVYRLRFYFPDWFGLETCHRFGLRKDLTSAILDLHVLEHLFAQHRSDLVSGRLPVGLSMKEQGEFLSLAVLDLAQMAREQAQRPGELLKTVSYKACLPPSLRDVIQGQNFVTRRRIRRTVVLALRRVVACQADRYALMAKYILDLERLHPAATTETFRVGLPGAQEEPGLLRVAGDNGISWSSGDQELFQTFCDFPEIVDVSIKQAPRVGPAGEHRLVTVTRMDGHILEAEFPGLPEALSFVALVDGYFRLICDSRHYFCKEVAPPRLLEEEAELCHGPITLDFAIHKLKAAGSLPGTYILRRSPQDYDSFLLTACVQTPLGPDYKGCLIRQDPSGAFSLVGLSQPHRSLRELLAACWNSGLRVDGAALNLTSCCAPRPKEKSNLIVVRRGCTPAPAPGCSPSCCALTQLSFHTIPTDSLEWHENLGHGSFTKIFRGRRREVVDGETHDSEVLLKVMDSRHRNCMESFLEAASLMSQVSYPHLVLLHGVCMAGDSIMVQEFVYLGAIDMYLRKRGHLVSASWKLQVTKQLAYALNYLEDKGLPHGNVSARKVLLAREGGDGNPPFIKLSDPGVSPTVLSLEMLTDRIPWVAPECLQEAQTLCLEADKWGFGATTWEVFSGGPAHITSLEPAKKLKFYEDQGQLPALKWTELAGLITQCMAYDPGRRPSFRAILRDLNGLITSDYELLSDPTPGIPSPRDELCGGAQLYACQDPAIFEERHLKYISLLGKGNFGSVELCRYDPLGDNTGPLVAVKQLQHSGPDQQRDFQREIQILKALHSDFIVKYRGVSYGPGRQSLRLVMEYLPSGCLRDFLQRHRARLHTDRLLLFAWQICKGMEYLGARRCVHRDLAARNILVESEAHVKIADFGLAKLLPLGKDYYVVREPGQSPIFWYAPESLSDNIFSRQSDVWSFGVVLYELFTYCDKSCSPSAEFLRMMGPEREGPPLCRLLELLAEGRRLPPPPTCPTEVQELMQLCWAPSPHDRPAFGTLSPQLDALWRGRPG
On to B1, for which the binding result was “binds”.
